According to paper PMC12777490:
Results are given in words; binding and its absence hold for the method and conditions named. Binding seen in cells or lysates may run through a third protein. Some binding calls cover weakened binding; strength is not graded here.

By UniProt entry, the sequences of proteins in these tests, tags left out.
UniProt Q16637: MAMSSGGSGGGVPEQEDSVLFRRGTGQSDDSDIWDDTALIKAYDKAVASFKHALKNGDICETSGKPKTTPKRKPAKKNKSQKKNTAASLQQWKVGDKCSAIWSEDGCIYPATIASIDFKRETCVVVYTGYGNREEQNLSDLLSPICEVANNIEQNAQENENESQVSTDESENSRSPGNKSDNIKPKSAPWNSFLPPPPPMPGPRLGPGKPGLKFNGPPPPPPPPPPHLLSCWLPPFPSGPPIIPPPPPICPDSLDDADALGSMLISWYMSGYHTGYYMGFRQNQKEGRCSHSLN
UniProt O14893: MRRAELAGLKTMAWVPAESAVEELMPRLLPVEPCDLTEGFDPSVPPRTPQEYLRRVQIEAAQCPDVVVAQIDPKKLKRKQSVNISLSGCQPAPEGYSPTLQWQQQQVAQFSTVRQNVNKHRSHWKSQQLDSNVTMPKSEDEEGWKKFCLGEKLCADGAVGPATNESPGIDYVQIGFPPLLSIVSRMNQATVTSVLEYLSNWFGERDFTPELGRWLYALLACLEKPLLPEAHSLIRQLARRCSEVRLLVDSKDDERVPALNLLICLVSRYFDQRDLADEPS
UniProt Q9UHI6: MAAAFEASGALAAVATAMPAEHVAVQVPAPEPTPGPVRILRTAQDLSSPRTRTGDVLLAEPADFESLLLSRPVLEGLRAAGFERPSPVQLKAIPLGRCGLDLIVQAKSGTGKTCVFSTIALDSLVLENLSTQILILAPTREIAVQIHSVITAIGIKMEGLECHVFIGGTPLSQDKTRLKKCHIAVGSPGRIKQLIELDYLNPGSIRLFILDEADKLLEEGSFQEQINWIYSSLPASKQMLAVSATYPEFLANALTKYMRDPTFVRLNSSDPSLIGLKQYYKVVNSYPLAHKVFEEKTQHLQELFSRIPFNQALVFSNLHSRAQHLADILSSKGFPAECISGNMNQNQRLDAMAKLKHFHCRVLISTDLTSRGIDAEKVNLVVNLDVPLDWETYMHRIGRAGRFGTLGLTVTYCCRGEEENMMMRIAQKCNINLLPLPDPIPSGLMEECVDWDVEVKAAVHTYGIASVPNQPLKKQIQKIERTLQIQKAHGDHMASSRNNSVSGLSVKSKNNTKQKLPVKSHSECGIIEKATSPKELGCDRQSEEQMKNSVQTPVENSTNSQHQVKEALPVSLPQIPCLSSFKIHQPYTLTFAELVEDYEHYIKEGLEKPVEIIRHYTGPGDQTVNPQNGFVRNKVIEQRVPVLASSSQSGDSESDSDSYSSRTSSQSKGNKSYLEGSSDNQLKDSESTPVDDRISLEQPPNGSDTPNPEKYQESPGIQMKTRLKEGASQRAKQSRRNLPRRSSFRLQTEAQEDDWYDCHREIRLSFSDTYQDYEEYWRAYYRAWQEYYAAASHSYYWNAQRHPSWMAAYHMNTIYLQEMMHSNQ
UniProt Q8TEQ6: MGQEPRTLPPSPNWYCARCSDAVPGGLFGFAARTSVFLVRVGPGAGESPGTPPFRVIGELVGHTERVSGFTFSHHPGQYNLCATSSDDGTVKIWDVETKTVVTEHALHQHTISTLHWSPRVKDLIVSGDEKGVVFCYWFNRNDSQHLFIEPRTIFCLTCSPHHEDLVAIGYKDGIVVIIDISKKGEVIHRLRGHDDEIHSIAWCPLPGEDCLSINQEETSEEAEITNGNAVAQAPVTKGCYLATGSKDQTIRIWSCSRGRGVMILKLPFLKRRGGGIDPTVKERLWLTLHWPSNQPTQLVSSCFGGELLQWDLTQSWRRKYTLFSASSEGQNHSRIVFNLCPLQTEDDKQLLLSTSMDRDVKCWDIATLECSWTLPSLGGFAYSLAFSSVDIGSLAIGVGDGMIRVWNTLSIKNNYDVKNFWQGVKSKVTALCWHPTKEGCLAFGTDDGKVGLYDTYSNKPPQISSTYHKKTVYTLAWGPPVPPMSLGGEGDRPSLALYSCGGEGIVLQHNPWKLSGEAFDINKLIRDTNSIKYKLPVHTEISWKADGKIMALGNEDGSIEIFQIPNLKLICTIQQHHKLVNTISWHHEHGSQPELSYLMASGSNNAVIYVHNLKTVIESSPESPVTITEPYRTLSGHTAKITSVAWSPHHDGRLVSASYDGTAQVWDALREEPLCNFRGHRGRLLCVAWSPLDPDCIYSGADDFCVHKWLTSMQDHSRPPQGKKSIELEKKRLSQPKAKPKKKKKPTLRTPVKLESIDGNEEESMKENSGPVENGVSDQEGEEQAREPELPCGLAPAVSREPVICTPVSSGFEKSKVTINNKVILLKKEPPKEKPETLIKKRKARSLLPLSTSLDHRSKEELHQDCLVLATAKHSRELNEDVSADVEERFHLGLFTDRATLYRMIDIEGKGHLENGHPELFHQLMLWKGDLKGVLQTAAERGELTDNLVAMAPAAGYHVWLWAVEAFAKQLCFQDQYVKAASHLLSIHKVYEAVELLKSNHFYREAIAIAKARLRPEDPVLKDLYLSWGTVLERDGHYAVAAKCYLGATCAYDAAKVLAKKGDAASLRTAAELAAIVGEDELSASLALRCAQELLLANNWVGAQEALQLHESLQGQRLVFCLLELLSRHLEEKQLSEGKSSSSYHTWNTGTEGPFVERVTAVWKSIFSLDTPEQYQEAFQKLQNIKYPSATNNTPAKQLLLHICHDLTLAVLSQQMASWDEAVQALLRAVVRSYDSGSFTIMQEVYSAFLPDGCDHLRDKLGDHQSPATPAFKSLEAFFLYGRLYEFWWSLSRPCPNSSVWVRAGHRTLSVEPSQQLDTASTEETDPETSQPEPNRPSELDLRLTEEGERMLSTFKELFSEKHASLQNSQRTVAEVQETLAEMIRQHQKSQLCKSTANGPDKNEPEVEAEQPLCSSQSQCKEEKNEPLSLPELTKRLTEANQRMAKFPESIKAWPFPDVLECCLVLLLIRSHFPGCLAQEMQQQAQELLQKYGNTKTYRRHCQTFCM
UniProt Q8WXD5: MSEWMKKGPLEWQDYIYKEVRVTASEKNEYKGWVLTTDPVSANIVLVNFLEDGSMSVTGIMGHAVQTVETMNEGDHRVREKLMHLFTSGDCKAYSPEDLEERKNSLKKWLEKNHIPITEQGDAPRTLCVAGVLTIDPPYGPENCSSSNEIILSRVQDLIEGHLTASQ
UniProt Q9H840: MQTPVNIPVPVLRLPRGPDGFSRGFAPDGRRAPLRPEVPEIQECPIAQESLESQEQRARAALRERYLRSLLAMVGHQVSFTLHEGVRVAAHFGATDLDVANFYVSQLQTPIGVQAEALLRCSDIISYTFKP

molecular target: SBP-tagged SMN1 protein (UniProt Q16637); test: pull-down; SBP-tagged SMN1 co-transfected with the other SMN constituent proteins without a tag in HEK293T; cleared lysate (TBS, 1% Triton X-100) incubated with Dynabeads M-280 Streptavidin for 30 min, washed, eluted by boiling in SDS sample buffer; SDS-PAGE, Strep-Tactin HRP blot and silver staining beside lysates expressing single proteins

binding, binds:
Gemin2 (from UniProt O14893 1-280)
Gemin3 (from UniProt Q9UHI6 1-824)
Gemin5 (from UniProt Q8TEQ6 1-1508)
Gemin6 (from UniProt Q8WXD5 1-167)
Gemin7 (from UniProt Q9H840 1-131)
